This data set has as its target T1, P2 C repressor (15N-labeled wild type) (Enterobacteria phage P2) (UniProt P04132).
T1 sequence (looked up): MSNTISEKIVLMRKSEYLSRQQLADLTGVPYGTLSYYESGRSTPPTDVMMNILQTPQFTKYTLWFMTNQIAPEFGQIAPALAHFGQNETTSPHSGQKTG
Kind of data set: NMR (15N-HSQC). The following applies: 200 uM monomer, 50 uM dsDNA (4:1), mixed at 278 K for 60 min, only flexible C-terminal peaks visible in complex; 10 mM sodium phosphate pH 6.0, 10% D2O, 298 K (complex mixed at 278 K for 60 min); recombinant protein; residues 1-99.

Construct, isoform or probe ends are uncertain for at least one entry. At least one verdict rests on a figure or table, not on a statement of the authors. Where a protein sequence is shown, tags need not be part of it.

Regarding “CATGGTGTTTAGATCTCAATAGTATTTAGTTTAGATGTAGAT (double strand) [42 bp O1-O2 operator DNA]”, the binding result is listed as “binds”.

The values above are taken from paper PMC4752584, “The C repressor of the P2 bacteriophage” (Journal of Biomolecular Nmr, 2015).
